The target in assay [1] is T1, recombinant human NOTCH1 protein (human, UniProt P46531 1426-1731, limits assumed).
T1 construct: NOTCH1 proteins'
T1 sequence (looked up): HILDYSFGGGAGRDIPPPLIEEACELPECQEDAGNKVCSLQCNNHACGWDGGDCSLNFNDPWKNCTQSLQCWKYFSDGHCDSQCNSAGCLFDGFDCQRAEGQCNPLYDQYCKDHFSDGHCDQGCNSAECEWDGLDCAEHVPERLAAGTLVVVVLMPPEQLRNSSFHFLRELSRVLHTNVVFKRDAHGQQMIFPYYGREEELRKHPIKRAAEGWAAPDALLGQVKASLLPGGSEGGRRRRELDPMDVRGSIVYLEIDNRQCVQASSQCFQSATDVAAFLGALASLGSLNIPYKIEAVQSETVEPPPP
The assay is described as follows: ELISA of conditioned medium from HEK 293 cells co-transfected with H4 heavy chain and murine 52M51 light chain. For orientation: An ELISA detects its analyte on a solid surface through an enzyme-linked reagent.

Assay [2] concerns the target T1, recombinant human NOTCH1 protein. The assay is described as follows: ELISA of conditioned medium from HEK293 cells co-transfected with 52M51-H4 and the light chain variant.

Results are given in words; binding and its absence hold for the method and conditions named. Some entries that bind do so weakly or less than the wild type.

B1: 52M51-H4 humanized heavy chain co-expressed with the murine 52M51 light chain (antibody, human IgG2, V domains shown)
VH: QVQLVQSGAEVKKPGASVKISCKVSGYTLRGYWIEWVRQAPGKGLEWIGQILPGTGRTNYNEKFKGRVTMTADTSTDTAYMELSSLRSEDTAVYYCARFDGNYGYYAMDYWGQGTTVTVSS
VL: QAVVTQESALTTSPGETVTLTCRSSTGAVTTSNYANWVQEKPDHLFTGLIGGTNNRAPGVPARFSGSLIGDKAALTITGAQTEDEAIYFCALWYSNHWVFGGGTKLTVLG
As to B1, the binding result in assay [1] was “binds”.

B2: humanized antibody 52M51-H4L4 (antibody, human IgG2, lambda, V domains shown)
VH: B1 VH
VL: SQTVVTQEPSFSVSPGGTVTLTCRSSTGAVTTSNYANWYQQTPGQAPRTLIGGTNNRAPGVPDRFSGSILGNKAALTITGAQADDESDYYCALWYSNHWVFGGGTKLTVLG
notes: Human IgG2 heavy chain and lambda (IgLC1) light chain
Regarding B2, the binding entry in assay [2] is reported as “binds”.

B3: humanized antibody 52M51-H4L3 (antibody, human IgG2, lambda, V domains shown)
VH: B1 VH
VL: SQAVVTQEPSLTVSPGGTVTLTCRSSTGAVTTSNYANWFQQKPGQAPRTLIGGTNNRAPGVPARFSGSLLGGKAALTLSGAQPEDEAEYYCALWYSNHWVFGGGTKLTVLG
notes: Human IgG2 heavy chain and lambda (IgLC1) light chain; also called OMP-52M51; ATCC PTA-9549
As to B3, the binding result in assay [2] is reported as “binds”.

The record behind these values is patent publication US20150232570A1 (ONCOMED PHARMACEUTICALS, published 2015).
